Experimental data taken from the supplement of paper PMC6078165.

Test system: BT20
Test: relative JC-1 red fluorescence (viability) vs pre-drug, coculture with fibroblast (fraction); higher = more viable cancer cells
Description: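 JC-1 labelled TNBC cells cocultured 1:1 (1,500 cells each) with CellTrace Violet stained primary or stromal fibroblasts in 384-well plates in FluoroBrite medium, treated with one of 42 anticancer drugs at 0.1, 1, 10 or 100 uM. JC-1 red fluorescence (mitochondrial integrity in cancer cells only) was read by plate reader every 8 h for 72 h. Values are normalised to each well's pre-drug value. The stock of one drug was tenfold lower, so its dose labels may be too high.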

CO[C@@]12[C@H](COC(N)=O)C3=C(C(=O)C(C)=C(N)C3=O)N1C[C@@H]1N[C@@H]12 [Mitomycin C]
relative JC-1 red fluorescence
Conditions | 8 h | 16 h | 24 h | 32 h | 40 h | 48 h | 56 h | 64 h | 72 h
0.1 µM, coculture fibroblast: C12385 | 0.927 | 0.861 | 0.804 | 0.749 | 0.705 | 0.668 | 0.648 | 0.62 | 0.592
0.1 µM, coculture fibroblast: H6013 | 0.976 | 0.895 | 0.831 | 0.795 | 0.738 | 0.711 | 0.688 | 0.644 | 0.614
0.1 µM, coculture fibroblast: H6019 | 0.87 | 0.809 | 0.784 | 0.727 | 0.67 | 0.645 | 0.608 | 0.577 | 0.556
0.1 µM, coculture fibroblast: H6076 | 0.895 | 0.861 | 0.773 | 0.737 | 0.686 | 0.65 | 0.617 | 0.596 | 0.565
0.1 µM, coculture fibroblast: H6231 | 0.901 | 0.9238 | 0.79354 | 0.7302 | 0.6809 | 0.6201 | 0.573 | 0.541 | 0.516
0.1 µM, coculture fibroblast: HADF | 0.77 | 0.933 | 0.857 | 0.837 | 0.807 | 0.762 | 0.734 | 0.71 | 0.666
0.1 µM, coculture fibroblast: HCFa | 0.949 | 0.856 | 0.788 | 0.728 | 0.67 | 0.636 | 0.603 | 0.576 | 0.537
0.1 µM, coculture fibroblast: HCPF | 0.855 | 0.879 | 0.807 | 0.7599 | 0.714 | 0.683 | 0.646 | 0.625 | 0.586
0.1 µM, coculture fibroblast: HHSteC | 0.959 | 0.862 | 0.831 | 0.758 | 0.712 | 0.679 | 0.656 | 0.634 | 0.601
0.1 µM, coculture fibroblast: HMF | 0.9877 | 0.905 | 0.823 | 0.778 | 0.739 | 0.695 | 0.66 | 0.624 | 0.589
0.1 µM, coculture fibroblast: HPFa | 0.959 | 0.893 | 0.841 | 0.841 | 0.826 | 0.791 | 0.781 | 0.758 | 0.707
0.1 µM, coculture fibroblast: HUF | 0.905 | 0.805 | 0.748 | 0.657 | 0.607 | 0.572 | 0.553 | 0.527 | 0.504
0.1 µM, coculture fibroblast: Hs5 | 0.773 | 0.89866 | 0.849 | 0.798 | 0.763 | 0.733 | 0.716 | 0.688 | 0.672
0.1 µM, coculture fibroblast: Hs27A | 0.897 | 0.892 | 0.89 | 0.88 | 0.834 | 0.803 | 0.793 | 0.766 | 0.727
0.1 µM, coculture fibroblast: Hs343T | 0.936 | 0.907 | 0.781 | 0.71 | 0.652 | 0.619 | 0.563 | 0.536 | 0.494
0.1 µM, coculture fibroblast: WS1 | 0.8628 | 0.779 | 0.734 | 0.667 | 0.611 | 0.58 | 0.55 | 0.514 | 0.503
1 µM, coculture fibroblast: C12385 | 0.862 | 0.801 | 0.772 | 0.699 | 0.653 | 0.6206 | 0.5948 | 0.566 | 0.5376
1 µM, coculture fibroblast: H6013 | 0.9293 | 0.8985 | 0.8658 | 0.8239 | 0.774 | 0.7568 | 0.7369 | 0.702 | 0.684
1 µM, coculture fibroblast: H6019 | 0.8206 | 0.75 | 0.7226 | 0.6416 | 0.57574 | 0.549 | 0.508 | 0.479 | 0.455
1 µM, coculture fibroblast: H6076 | 0.956 | 0.864 | 0.775 | 0.726 | 0.691 | 0.644 | 0.604 | 0.588 | 0.549
1 µM, coculture fibroblast: H6231 | 0.9143 | 0.834 | 0.856 | 0.824 | 0.766 | 0.705 | 0.658 | 0.602 | 0.562
1 µM, coculture fibroblast: HADF | 0.935 | 0.916 | 0.871 | 0.831 | 0.805 | 0.773 | 0.737 | 0.715 | 0.677
1 µM, coculture fibroblast: HCFa | 0.8772 | 0.8151 | 0.7671 | 0.699 | 0.662 | 0.632 | 0.597 | 0.566 | 0.5304
1 µM, coculture fibroblast: HCPF | 0.951 | 0.86 | 0.762 | 0.708 | 0.653 | 0.611 | 0.577 | 0.562 | 0.532
1 µM, coculture fibroblast: HHSteC | 0.878 | 0.844 | 0.844 | 0.771 | 0.728 | 0.703 | 0.684 | 0.661 | 0.639
1 µM, coculture fibroblast: HMF | 0.957 | 0.823 | 0.718 | 0.651 | 0.602 | 0.545 | 0.504 | 0.474 | 0.444
1 µM, coculture fibroblast: HPFa | 0.957 | 0.888 | 0.9 | 0.826 | 0.811 | 0.769 | 0.748 | 0.718 | 0.677
1 µM, coculture fibroblast: HUF | 0.884 | 0.8027 | 0.775 | 0.696 | 0.641 | 0.604 | 0.586 | 0.563 | 0.547
1 µM, coculture fibroblast: Hs5 | 0.979 | 0.87 | 0.794 | 0.743 | 0.7023 | 0.659 | 0.625 | 0.599 | 0.577
1 µM, coculture fibroblast: Hs27A | 0.8285 | 0.983 | 0.922 | 0.90616 | 0.874 | 0.857 | 0.852 | 0.834 | 0.793
1 µM, coculture fibroblast: Hs343T | 0.951 | 0.833 | 0.734 | 0.656 | 0.604 | 0.559 | 0.528 | 0.5 | 0.457
1 µM, coculture fibroblast: WS1 | 0.868 | 0.775 | 0.733 | 0.648 | 0.5795 | 0.542 | 0.502 | 0.464 | 0.435
10 µM, coculture fibroblast: C12385 | 0.9002 | 0.831 | 0.73 | 0.648 | 0.568 | 0.536 | 0.508 | 0.468 | 0.432
10 µM, coculture fibroblast: H6013 | 0.887 | 0.876 | 0.824 | 0.728 | 0.605 | 0.548 | 0.527 | 0.504 | 0.481
10 µM, coculture fibroblast: H6019 | 0.8482 | 0.754 | 0.681 | 0.57 | 0.471 | 0.406 | 0.358 | 0.323 | 0.322
10 µM, coculture fibroblast: H6076 | 0.908 | 0.856 | 0.719 | 0.655 | 0.552 | 0.489 | 0.437 | 0.413 | 0.389
10 µM, coculture fibroblast: H6231 | 0.9043 | 0.934 | 0.776 | 0.6783 | 0.587 | 0.502 | 0.453 | 0.415 | 0.396
10 µM, coculture fibroblast: HADF | 0.778 | 0.91 | 0.787 | 0.692 | 0.591 | 0.536 | 0.507 | 0.491 | 0.462
10 µM, coculture fibroblast: HCFa | 0.953 | 0.8857 | 0.852 | 0.78 | 0.716 | 0.666 | 0.645 | 0.645 | 0.629
10 µM, coculture fibroblast: HCPF | 0.9193 | 0.9511 | 0.817 | 0.749 | 0.653 | 0.58 | 0.522 | 0.495 | 0.468
10 µM, coculture fibroblast: HHSteC | 0.929 | 0.846 | 0.812 | 0.709 | 0.629 | 0.565 | 0.532 | 0.508 | 0.4782
10 µM, coculture fibroblast: HMF | 0.862 | 0.865 | 0.7226 | 0.615 | 0.532 | 0.457 | 0.413 | 0.379 | 0.348
10 µM, coculture fibroblast: HPFa | 0.935 | 0.8286 | 0.82631 | 0.731 | 0.68 | 0.641 | 0.649 | 0.639 | 0.606
10 µM, coculture fibroblast: HUF | 0.894 | 0.7843 | 0.731 | 0.626 | 0.538 | 0.491 | 0.459 | 0.448 | 0.442
10 µM, coculture fibroblast: Hs5 | 0.815 | 0.913 | 0.7727 | 0.6828 | 0.596 | 0.556 | 0.5264 | 0.492 | 0.476
10 µM, coculture fibroblast: Hs27A | 0.812 | 0.824 | 0.806 | 0.848 | 0.926 | 0.874 | 0.873 | 0.889 | 0.884
10 µM, coculture fibroblast: Hs343T | 0.809 | 0.862 | 0.704 | 0.598 | 0.472 | 0.387 | 0.316 | 0.292 | 0.264
10 µM, coculture fibroblast: WS1 | 0.861 | 0.777 | 0.695 | 0.576 | 0.475 | 0.43 | 0.38 | 0.347 | 0.331
100 µM, coculture fibroblast: C12385 | 0.728 | 0.599 | 0.594 | 0.529 | 0.491 | 0.488 | 0.4876 | 0.4844 | 0.48
100 µM, coculture fibroblast: H6013 | 0.789 | 0.668 | 0.721 | 0.6386 | 0.629 | 0.626 | 0.65 | 0.637 | 0.63
100 µM, coculture fibroblast: H6019 | 0.714 | 0.596 | 0.634 | 0.605 | 0.587 | 0.585 | 0.57 | 0.561 | 0.555
100 µM, coculture fibroblast: H6076 | 0.883 | 0.687 | 0.601 | 0.58 | 0.575 | 0.562 | 0.566 | 0.565 | 0.547
100 µM, coculture fibroblast: H6231 | 0.844 | 0.674 | 0.5812 | 0.5514 | 0.5427 | 0.5173 | 0.524 | 0.512 | 0.509
100 µM, coculture fibroblast: HADF | 0.791 | 0.666 | 0.724 | 0.632 | 0.643 | 0.624 | 0.639 | 0.641 | 0.617
100 µM, coculture fibroblast: HCFa | 0.765 | 0.624 | 0.66 | 0.59 | 0.607 | 0.607 | 0.63 | 0.639 | 0.618
100 µM, coculture fibroblast: HCPF | 0.936 | 0.708 | 0.606 | 0.574 | 0.557 | 0.535 | 0.531 | 0.521 | 0.512
100 µM, coculture fibroblast: HHSteC | 0.713 | 0.622 | 0.655 | 0.565 | 0.553 | 0.532 | 0.543 | 0.534 | 0.52
100 µM, coculture fibroblast: HMF | 0.902 | 0.6177 | 0.436 | 0.388 | 0.382 | 0.37 | 0.384 | 0.388 | 0.39
100 µM, coculture fibroblast: HPFa | 0.749 | 0.7051 | 0.7377 | 0.6575 | 0.663 | 0.642 | 0.652 | 0.654 | 0.646
100 µM, coculture fibroblast: HUF | 0.737 | 0.645 | 0.673 | 0.616 | 0.596 | 0.586 | 0.605 | 0.615 | 0.615
100 µM, coculture fibroblast: Hs5 | 0.889 | 0.694 | 0.607 | 0.579 | 0.57 | 0.554 | 0.554 | 0.547 | 0.539
100 µM, coculture fibroblast: Hs27A | 0.863 | 0.75 | 0.838 | 0.781 | 0.789 | 0.811 | 0.841 | 0.745 | 0.81
100 µM, coculture fibroblast: Hs343T | 0.879 | 0.602 | 0.465 | 0.423 | 0.42 | 0.412 | 0.42 | 0.416 | 0.411
100 µM, coculture fibroblast: WS1 | 0.697 | 0.52 | 0.504 | 0.445 | 0.413 | 0.403 | 0.395 | 0.392 | 0.384

Values are relative to the signal before dosing, not to a vehicle control; the signal also falls without drug.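 Fibroblast labels denote human fibroblasts, mainly primary ones from uterus (C12385, HUF), lung (H6013), bone (Hs27A), adrenal (HADF) and skin (WS1), plus mammary HMF and breast cancer-associated Hs343T. Cancer cells are basal-like or mesenchymal-like triple-negative breast cancer lines. A hit is a response shift exceeding 3x replicate standard deviation. The tissue of the other fibroblasts is not given here.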
